Record: PubChem BioAssay AID1259293 (Sanger Institute, 2017)
The whole screen tested 160 reagents; this is an unselected part. Over the whole deposit, 46 (29%) are marked active. 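The method behind the synergy score is not described; each call refers to one siRNA in a single cell line.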 A number with no mark means an inactive call. The numbers tell different reagents against one gene apart. Further read-outs or replicates are left out here. The record does not give: the amount of reagent, the time to read-out.

Test: 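Follow-up of kinase siRNAs for synthetic lethality with three anchor drugs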 (follow-up of hits)
Cell system: human NCI-H716 colorectal cancer cells
Reagents: single siRNA against human genes
Conditions: anchor drugs BYL719 at 1 µM, cetuximab at 5 µg/ml or trametinib at 10 nM, or DMSO vehicle alone
Read-out: 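For every anchor drug, viability versus control pool 2 (non-targeting) and a synergy score of drug with siRNA, each a replicate average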
Direction: synergy score with BYL719 and synergy score with cetuximab and synergy score with trametinib: higher = stronger synthetic lethal effect with drug
Call rule: 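Hit when any single drug gives a synergy score greater than 0.10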
Meaning of the calls: active = synergy with at least one drug; inactive = no synergy with any drug

With knock-down of CHD4 (GeneID 1108) #1, the screen gave synergy score with BYL719 = -0.206; synergy score with cetuximab -0.252; synergy score with trametinib -0.0343.
Against CHD4 (GeneID 1108) #2 the deposit lists synergy score with BYL719 = 0.0607; synergy score with cetuximab -0.0669; synergy score with trametinib -0.00744.
With knock-down of CHD4 (GeneID 1108) #3, the screen gave synergy score with BYL719 = -0.333; synergy score with cetuximab -0.322; synergy score with trametinib -0.21.
Depletion of CHD4 (GeneID 1108) #4 resulted in: synergy score with BYL719 = -0.111; synergy score with cetuximab 0.0897; synergy score with trametinib -0.0419.
For CRIM1 (GeneID 51232) #1 the deposit lists synergy score with BYL719 = -0.262; synergy score with cetuximab -0.199; synergy score with trametinib 0.00242.
Knock-down of CRIM1 (GeneID 51232) #2 came out at: synergy score with BYL719 = -0.0544; synergy score with cetuximab -0.273; synergy score with trametinib -0.00401.
CRIM1 (GeneID 51232) #3 showed synergy score with BYL719 = -0.261; synergy score with cetuximab -0.391; synergy score with trametinib -0.0391.
CRIM1 (GeneID 51232) #4 scored synergy score with BYL719 = 0.0809; synergy score with cetuximab -0.0238; synergy score with trametinib -0.178.
MAPK4 (GeneID 5596) #1 gave synergy score with BYL719 = -0.022 (active); synergy score with cetuximab 0.292; synergy score with trametinib 0.171.
Silencing of MAPK4 (GeneID 5596) #2 gave: synergy score with BYL719 = -0.369; synergy score with cetuximab -0.135; synergy score with trametinib -0.166.
For MAPK4 (GeneID 5596) #3, the entry reads synergy score with BYL719 = -0.177; synergy score with cetuximab -0.121; synergy score with trametinib 0.0379.
Knock-down of MAPK4 (GeneID 5596) #4 came out at: synergy score with BYL719 = -0.0563; synergy score with cetuximab -0.0236; synergy score with trametinib 0.0915.
Against STK36 (GeneID 27148) #1 the deposit lists synergy score with BYL719 = 0.0131 (active); synergy score with cetuximab -0.0995; synergy score with trametinib 0.154.
For STK36 (GeneID 27148) #2, the entry reads synergy score with BYL719 = -0.244; synergy score with cetuximab -0.179; synergy score with trametinib -0.214.
Knock-down of STK36 (GeneID 27148) #3 gave: synergy score with BYL719 = -0.253 (active); synergy score with cetuximab -0.189; synergy score with trametinib 0.117.
Against STK36 (GeneID 27148) #4 the deposit lists synergy score with BYL719 = -0.485; synergy score with cetuximab -0.123; synergy score with trametinib -0.175.

Looked up above.
CHD4 (GeneID 1108) #3, synergy score with cetuximab → -0.322
Value of STK36 (GeneID 27148) #4 in “synergy score with cetuximab”: -0.123
CHD4 (GeneID 1108) #2, synergy score with trametinib = -0.00744
